Test results taken from PubChem BioAssay AID504444 (National Center for Advancing Translational Sciences (NCATS), 2011).
Out of some 360,000 compounds screened, about 7,500 (2.1%) were called active. This list was built around the results that the source calls inconclusive (neither active nor inactive); the mix of calls is not that of the screen. Calls come from the whole dose curve; as a rule, active = well fitted inhibition curve with a large enough effect; inconclusive = small, poorly fitted or top-dose-only effect, or effect the other way; inactive = flat fitted curve, though single readings scatter. A potency beside an inconclusive call is a rough fit, not a confirmed value.

experiment: Nrf2 qHTS screen for inhibitors; conditions: A549 ARE-Fluc reporter, luciferase luminescence, 18-24 h; activity change, negative = inhibition: at 46 µM (top of the series); note: nearly all actives have a fitted effect of over 60% in size
Method in brief: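 Two sequential reads on A549 ARE_Fluc cells exposed to compound for 18-24 h: a CellTiter-Fluor fluorescence read for viability, then a luciferase luminescence read for Nrf2/ARE activity.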
% is set by controls: 0 for no effect and ±100 for the full control effect; potency is the fitted concentration of half-maximal effect.

Question: With `O=C(Nc1ccccc1)Nc1cccc2nsnc12` as the compound, how does the Potency read?
Answer: inconclusive: 1.84 µM [activator, full curve]

Question: Which Potency does the source give for `CC1=C(c2ccc(C)c(C)c2)S(=O)(=O)N=C1N1CCN(c2cccc(C(F)(F)F)c2)CC1` here?
Answer: inconclusive: 29.1 µM [falling, partial curve, poor fit]

Question: For `COc1ccc(-n2cc(-c3ccc(OC(F)F)cc3)[n+]3c2CCCCC3)cc1`, which “activity change, negative = inhibition” value is on record?
Answer: inactive: -5.76%

Question: For `COc1ccc(C2=CC(c3ccc(C)cc3)n3nnnc3N2)cc1` (stereo not given), which “activity change, negative = inhibition” value is on record?
Answer: inactive: 14.5%

Question: Which Potency does the source give for `CCOc1cccc(/C=N/NC(=O)c2cccnc2)c1O` here?
Answer: inconclusive: 20.6 µM [falling, partial curve]

Question: Which Potency does the source give for `CCN(C(=O)c1cnc(NC(C)C)cc1C(F)(F)F)c1ccc(Cl)cc1Cl` here?
Answer: inconclusive: 20.6 µM [falling, single point]

Question: For `COCCCNC(=O)Cn1c(=O)n(CCCC(=O)NCc2ccc(C)cc2)c(=O)c2ccccc21`, which “activity change, negative = inhibition” value is on record?
Answer: inactive: 0.914%

Question: With `CCOC(=O)N1CCN(c2ncnc3c2[nH]c2ccc(OC)cc23)CC1` as the compound, how does the Potency read?
Answer: inconclusive: 20.6 µM [falling, single point]

Question: Which Potency does the source give for `COc1ccc([N+](=O)[O-])cc1Nc1c2ccccc2nc2ccccc12` here?
Answer: inconclusive: 29.1 µM [falling, single point]

Question: With `CCN(CC#CCC1(O)c2ccccc2-c2ccccc21)CCO` as the compound, how does the Potency read?
Answer: inconclusive: 0.291 µM [falling, full curve, poor fit]

Question: Which Potency does the source give for `CCCCN1CC(c2nc3ccccc3n2CCCCOc2c(C)cccc2C)CC1=O` (stereo not given) here?
Answer: inconclusive: 25.9 µM [activator, partial curve, poor fit]

Question: For `Cc1cc(C)c2c(c1)[C@@H]1C=CC[C@@H]1[C@H](c1ccc(S(=O)(=O)N3CCOCC3)cc1)N2`, which “activity change, negative = inhibition” value is on record?
Answer: inactive: -7.44%

Question: For `O=c1[nH]c(C2CCN(S(=O)(=O)c3ccccc3F)CC2)nc2c1nnn2Cc1ccc(OC(F)(F)F)cc1`, which Potency is on record?
Answer: inconclusive: 18.4 µM [falling, partial curve]

Question: With `CCCCCC(C)NC(=O)CN1C(=O)NC(C)(c2ccc3ccccc3c2)C1=O` (stereo not given) as the compound, how does the Potency read?
Answer: inconclusive: 16.4 µM [falling, partial curve, poor fit]

Question: Which Potency does the source give for `COc1ccc(CN2CCN(CC3CC3)CC2CCO)c(C)c1C` (stereo not given) here?
Answer: inconclusive: 32.6 µM [activator, partial curve, poor fit]

Question: Which Potency does the source give for `CC(C)(C)c1ccc(C(=O)NCC(=O)OCCN2C(=O)c3ccccc3C2=O)cc1` here?
Answer: inconclusive: 6.51 µM [activator, single point]

Question: Which Potency does the source give for `CCOC(=O)c1cnn(-c2c(Cc3ccccc3)c(C)nc3c(-c4ccccc4)c(C)nn23)c1N` here?
Answer: inconclusive: 4.11 µM [activator, single point]

Question: With `CCN(C(=O)c1sc2nc3n(c(=O)c2c1C)CCCCC3)c1ccccc1F` as the compound, how does the Potency read?
Answer: inconclusive: 5.8 µM [activator, partial curve, poor fit]

Question: Which Potency does the source give for `Cc1csc(NC(=O)CS(=O)(=O)c2ccccc2)n1` here?
Answer: inconclusive: 25.9 µM [activator, single point]

Question: With `Cc1ccc(NC(=O)Nc2nnc(N3CCCCC3)s2)c(C)c1` as the compound, how does the “activity change, negative = inhibition” value read?
Answer: inactive: -12.5%

Question: For `COc1ccc(-c2nc(NC(=O)C3CC(=O)N(Cc4ccco4)C3)sc2C)cc1` (stereo not given), which Potency is on record?
Answer: active: 23.1 µM

Question: With `CC(C)(C)OC(=O)NCCCCCc1nnc(SCc2cccc(F)c2)o1` as the compound, how does the Potency read?
Answer: inconclusive: 6.51 µM [falling, partial curve]

Question: Which Potency does the source give for `COc1cccc(NC(=O)c2cccc(C)c2[N+](=O)[O-])c1` here?
Answer: inconclusive: 29.1 µM [activator, single point]

Question: For `CCCc1cc(=O)oc2c(C)c3occ(C)c3cc12`, which “activity change, negative = inhibition” value is on record?
Answer: inactive: 0.12%

Question: With `COc1ccc(-c2cn3c(C)c(C(=O)NC(C)C)sc3n2)cc1` as the compound, how does the Potency read?
Answer: inconclusive: 23.1 µM [activator, partial curve, poor fit]

Question: For `CCOc1ccc(-n2c(SCc3ccc([N+](=O)[O-])cc3)nnc2-c2ccc(OC)cc2)cc1`, which Potency is on record?
Answer: inconclusive: 23.1 µM [falling, partial curve, poor fit]

Question: Which Potency does the source give for `Cc1ccccc1NC(=O)c1cc2c(C)nc3ccccc3c2o1` here?
Answer: inconclusive: 16.4 µM [falling, partial curve]

Question: With `CS(=O)c1ccccc1-c1nc(-c2cccc(Cl)c2)no1` (stereo not given) as the compound, how does the Potency read?
Answer: inconclusive: 1.3 µM [activator, full curve]

Question: With `O=C(N/N=C/c1ccccn1)c1ccncc1` as the compound, how does the Potency read?
Answer: inconclusive: 0.461 µM [activator, single point]

Question: Which “activity change, negative = inhibition” value does the source give for `Cc1cccc(-c2cc3nc4c(c(NCc5ccco5)n3n2)CCCC4)c1` here?
Answer: inactive: -46.2%

Question: Which Potency does the source give for `COc1ccc(OCC(=O)Nc2ccc(N3CCN(C(=O)c4ccccc4)CC3)c(Cl)c2)cc1` here?
Answer: inconclusive: 20.6 µM [falling, single point]

Question: With `Cn1c2c(c(=O)[nH]c1=O)C(c1ccc(O)cc1)C1=C(N2)c2ccccc2C1=O` (stereo not given) as the compound, how does the Potency read?
Answer: inconclusive: 11.6 µM [falling, partial curve]

Question: For `O=C(CSc1ncn(-c2ccccc2)n1)Nc1nc(-c2ccccc2)cs1`, which Potency is on record?
Answer: inconclusive: 29.1 µM [activator, single point]

Question: For `COc1cc(OC)c(NC(=O)c2oc3ccc4c(c3c2C)C(=O)CC(C)(C)O4)cc1Cl`, which Potency is on record?
Answer: inconclusive: 29.1 µM [activator, single point]

Question: For `Cc1nc2ccc(Cc3ccc4nc(C)[nH]c4c3)cc2[nH]1`, which Potency is on record?
Answer: inconclusive: 32.6 µM [falling, single point]

Question: Which Potency does the source give for `O=[N+]([O-])c1ccc(N2CCN(c3ccccc3Cl)CC2)cn1` here?
Answer: inconclusive: 14.6 µM [falling, partial curve]

Question: With `COc1ccc(N2CCN(C(=O)c3ccc(NS(=O)(=O)c4ccc(F)c(F)c4)cc3)CC2)cc1` as the compound, how does the Potency read?
Answer: inconclusive: 20.6 µM [falling, partial curve, poor fit]

Question: Which “activity change, negative = inhibition” value does the source give for `Cc1ccccc1-c1noc(N)c1C#N` here?
Answer: inactive: 2.12%

Question: For `CCOc1ccc(-c2nnc(Nc3ccc(OC)c(C(=O)N4CCCCC4)c3)c3ccccc23)cc1`, which Potency is on record?
Answer: inconclusive: 23.1 µM [falling, single point]

Question: For `FC(F)(F)c1nnc2ccc(N3CCCCC3)nn12`, which Potency is on record?
Answer: inconclusive: 8.2 µM [falling, partial curve, poor fit]

Question: For `CC(C)Nc1nc(NC(C)(C)C)nc(Oc2ccc(=O)n(-c3ccccc3)n2)n1`, which Potency is on record?
Answer: inconclusive: 18.4 µM [falling, single point]

Question: For `CC(C)c1ccc(Nc2nc3ccc(C(=O)c4ccccc4)cc3n3cnnc23)cc1`, which Potency is on record?
Answer: inconclusive: 2.31 µM [falling, single point]

Question: Which Potency does the source give for `CC(C)(C)OC(=O)N1CCC(NC(=O)c2ncn(Cc3ccccc3)c2C(=O)NC2CCN(C(=O)OC(C)(C)C)CC2)CC1` here?
Answer: inconclusive: 20.6 µM [falling, single point]

Question: For `CCN(CC)c1ccc(/C=N/NC(=O)CNC(=O)c2ccccn2)cc1`, which Potency is on record?
Answer: inconclusive: 8.2 µM [activator, partial curve, poor fit]

Question: Which Potency does the source give for `OCCC1CN(Cc2ccc3nsnc3c2)CCN1C1CCCCC1` (stereo not given) here?
Answer: inconclusive: 23.1 µM [activator, single point]

Question: With `OCCN(CC#CCC(O)(c1ccccc1)C1CCCC1)CCO` (stereo not given) as the compound, how does the “activity change, negative = inhibition” value read?
Answer: inactive: 4.94%

Question: For `Cc1cc(C)cc(C(=O)Nc2ccc(-c3cn4cccnc4n3)cc2)c1`, which Potency is on record?
Answer: active: 9.2 µM

Question: Which Potency does the source give for `O=C1c2ccsc2SCCN1Cc1c(F)cccc1Cl` here?
Answer: inconclusive: 0.92 µM [falling, full curve, poor fit]

Question: For `O=C(Nc1cc(Cl)ccc1-n1cncn1)c1ccc([N+](=O)[O-])s1`, which Potency is on record?
Answer: inconclusive: 29.1 µM [falling, single point]

Question: Which Potency does the source give for `O=C(NCCc1ccc(Cl)cc1)C(=O)Nc1cc2c3c(c1)CC(=O)N3CCC2` here?
Answer: inconclusive: 29.1 µM [falling, single point]

Question: With `CCC1S/C(=N/N=C/c2cccs2)NC1=O` (stereo not given) as the compound, how does the Potency read?
Answer: inconclusive: 29.1 µM [activator, single point]

Question: Which Potency does the source give for `Cc1csc(NC(=O)Cc2c(F)cccc2Cl)n1` here?
Answer: inconclusive: 18.4 µM [activator, partial curve]

Question: For `Cc1ccc(Oc2cnc3ccccc3n2)cc1`, which Potency is on record?
Answer: inconclusive: 23.1 µM [activator, single point]

Question: With `CNC(=O)c1cc(C(=O)c2ccc(Cl)cc2)c[nH]1` as the compound, how does the Potency read?
Answer: inconclusive: 6.51 µM [activator, partial curve]

Question: Which Potency does the source give for `CC(CCc1ccccc1)NC(=O)CN1CCN(c2ccc(O)cc2)CC1` (stereo not given) here?
Answer: inconclusive: 18.4 µM [falling, partial curve]

Question: Which Potency does the source give for `O=S(=O)(c1cccc(F)c1)N1CCN(c2ncnc3scc(-c4ccc(F)cc4)c23)CC1` here?
Answer: inconclusive: 29.1 µM [falling, single point]

Question: Which “activity change, negative = inhibition” value does the source give for `O=C1CC[C@@H](OCc2ccccc2)CCN1CC[C@H](Sc1ccccc1)c1ccccc1` here?
Answer: inactive: 12.4%

Question: Which Potency does the source give for `CCOC(=O)c1cccc(NC(=O)c2cc3ccccc3o2)c1` here?
Answer: inconclusive: 14.6 µM [activator, partial curve]

Question: Which Potency does the source give for `COc1ccc(C2NCCc3c2[nH]c2ccccc32)cc1COc1ccc(F)cc1` (stereo not given) here?
Answer: inconclusive: 29.1 µM [falling, single point]

Question: For `N#C/C(=N\Nc1ccc(Cl)cc1)C(N)=S`, which Potency is on record?
Answer: inconclusive: 29.1 µM [falling, single point]

Question: For `O=[N+]([O-])c1cccc(S(=O)(=O)c2ccc(N3CCCCC3)c([N+](=O)[O-])c2)c1`, which Potency is on record?
Answer: inconclusive: 29.1 µM [falling, single point]

Question: For `O=C(C1=C(O)C(=O)N(CC2CCCO2)C1c1ccccc1Cl)c1ccco1` (stereo not given), which “activity change, negative = inhibition” value is on record?
Answer: inactive: -14.3%

Question: For `CN(C)CCCNC(=O)c1cc(C(=O)C2CCCCC2)c[nH]1`, which “activity change, negative = inhibition” value is on record?
Answer: inactive: -9.78%

Question: For `CCOC(=O)C1CN(S(=O)(=O)c2ccc(C)cc2)CCN1S(=O)(=O)c1ccc(C)cc1` (stereo not given), which Potency is on record?
Answer: inconclusive: 29.1 µM [falling, single point]

Question: With `Cc1nc(N2CCN(c3ccccn3)CC2)c2c(C)c(C(=O)Nc3ccc(F)cc3)sc2n1` as the compound, how does the Potency read?
Answer: inconclusive: 29.1 µM [falling, single point]
